## Assay results

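293T-iDUX4 dual-reporter cells; luminescence of the tet-on Italica luciferase control is read after 24 h. The test concentration is not given here. Percent change in the Italica control signal; more negative values mean stronger inhibition, which points to nonspecific, tet-on or cytotoxic effects.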

Values are in %. Common to all entries: measured here: Italica tet-on control reporter. This is a side read-out of the assay, for part of the compounds, not drawn at random.

| structure | activity change (%) |
|---|---|
| `COc1ccc2c3c([nH]c2c1)[C@H](CO)N(CC1CC1)CC31CCN(Cc2ccccc2F)CC1` | -67.96 |
| `CN(C)C(=O)[C@@H]1[C@@H](CO)[C@@H]2Cn3c(ccc(-c4ccccc4)c3=O)[C@H]1N2C(=O)C1CC1` | -1.532 |
| `O=C(C[C@@H]1CC[C@@H]2[C@H](COC[C@@H](O)CN2C(=O)Nc2ccc(Cl)c(Cl)c2)O1)NC1CCC1` | -1.221 |
| `COc1ccc2c3c([nH]c2c1)[C@@H](CO)N(C(=O)NC(C)C)CC31CCN(Cc2ccccc2)CC1` | -57.32 |
| `Cc1ccc(S(=O)(=O)N2C[C@H](O)COC[C@H]3O[C@@H](CC(=O)NCC4CCCCC4)CC[C@@H]32)cc1` | -9.811 |
| `Cc1ccccc1S(=O)(=O)N1CCCCN2[C@H](C1)[C@@H](c1ccc(C#CCN(C)C)cc1)[C@@H]2CO` | -20.92 |
| `O=S(=O)(c1ccc(F)cc1)N1CCCCN2[C@H](CO)[C@H](c3ccc(C#CC4CC4)cc3)[C@@H]2C1` | -2.321 |
| `COc1cccc(C#Cc2ccc([C@H]3[C@@H](CO)N4C(=O)CN(S(=O)(=O)c5ccccc5C)C[C@H]34)cc2)c1` | -18.31 |
| `Cc1ccc(S(=O)(=O)N2CC[C@H]3[C@H](CO)Nc4ccc(C#Cc5ccc(F)cc5)cc4[C@H]32)cc1` | -8.273 |
| `N#Cc1cccc(-c2ccc3c(c2)[C@@H]2[C@@H](CCN2C(=O)c2ccncc2)[C@@H](CO)N3)c1` | -25.67 |
| `O=C(NC1CCC1)[C@@H]1[C@@H](CO)[C@@H]2Cn3c(ccc(-c4ccccc4)c3=O)[C@@H]2N1CCc1ccccc1` | -18.22 |
| `CC(C)NC(=O)N1[C@@H](CO)[C@@H](c2ccccc2)C12CN(Cc1ccccc1)C2` | -15.64 |
| `C[C@@H]1CN([C@@H](C)CO)C(=O)c2c(c3ccccc3n2C)-c2ccccc2CO[C@H]1CN(C)Cc1cccc(C(F)(F)F)c1` | -0.7088 |
| `CCS(=O)(=O)N1CCC2(CC1)CN(S(=O)(=O)c1ccccc1)[C@@H](CO)c1c2c2ccc(OC)cc2n1C` | 6.674 |
| `Cc1ccc(S(=O)(=O)N2CC[C@@H]3[C@@H](CO)Nc4ccc(-c5ccc(C#N)cc5)cc4[C@@H]32)cc1` | -55.15 |
| `C[C@@H]1CN([C@@H](C)CO)C(=O)c2c(c3ccccc3n2C)-c2ccccc2CO[C@H]1CN(C)C(=O)[C@H](C)c1ccccc1` | 1.968 |
| `Cc1ccccc1S(=O)(=O)N1CC(=O)N2[C@H](C1)[C@H](c1ccc(C#CCC(C)C)cc1)[C@@H]2CO` | -4.062 |
| `Cc1ccc(S(=O)(=O)N(C)C[C@@H]2OCc3ccccc3-c3c(n(C)c4ccccc34)C(=O)N([C@H](C)CO)C[C@@H]2C)cc1` | -72.6 |
| `O=C(C1CCCCC1)N1CC2(C1)[C@H](c1ccccc1)[C@@H](CO)N2Cc1nccs1` | -8.224 |
| `O=C(C[C@H]1CC[C@H]2[C@@H](COC[C@H](O)CN2Cc2cc(F)ccc2F)O1)NCc1ccc(Oc2ccccc2)cc1` | -38.79 |
| `O=C(C[C@H]1C[C@@H]2c3cc(NS(=O)(=O)c4ccc(F)cc4)ccc3O[C@@H]2[C@@H](CO)O1)NCc1ccc(Cl)cc1` | -31.48 |
| `OC[C@@H]1Nc2ccc(-c3ccccc3)cc2[C@H]2[C@@H]1CCN2Cc1ccccc1F` | -24.77 |
| `CN(C)C(=O)c1cccc(-c2ccc3c(c2)[C@@H]2[C@@H](CCN2C(=O)Cc2ccccc2)[C@@H](CO)N3)c1` | -1.035 |
| `C[C@@H]1CN([C@H](C)CO)C(=O)c2c(c3ccccc3n2C)-c2ccccc2CO[C@H]1CN(C)Cc1ccc(Cl)c(Cl)c1` | -19.49 |
| `COc1ccccc1NC(=O)N1CCCCN2[C@H](C1)[C@@H](c1ccc(-c3cccc(C#N)c3)cc1)[C@@H]2CO` | -54.57 |
| `O=C(Cc1ccccc1)N1CC2(C1)[C@H](c1ccccc1)[C@H](CO)N2Cc1cccc(F)c1` | -16.77 |
| `O=C(C[C@@H]1C[C@H]2c3cc(NS(=O)(=O)c4ccc(F)cc4)ccc3O[C@H]2[C@@H](CO)O1)N1CCc2ccccc2C1` | -15.09 |
| `O=C(C1CCC1)N1[C@@H](CO)[C@@H](c2ccccc2)C12CN(Cc1cccc(Cl)c1)C2` | -33.78 |
| `COc1ccc(CN2CC3(CN(C(=O)c4ccccc4)C3)c3c([nH]c4cc(OC)ccc34)[C@H]2CO)cc1` | -27.4 |
| `C(=C\c1ccc(C2[C@@H]3CN(Cc4ccc5c(c4)OCO5)C[C@H]2N3)cc1)/c1ccccc1` (stereo partly shown) | -71.47 |
| `O=C(Nc1ccc(F)cc1)N1CCCCN2[C@H](CO)[C@H](c3ccc(C#CC4CC4)cc3)[C@H]2C1` | -27.93 |
| `C/C=C/c1ccc([C@H]2[C@@H](CO)N3CCCCN(S(=O)(=O)c4ccc(OC)cc4)C[C@H]23)cc1` | -7.206 |
| `COc1cccc(-c2ccc3c(c2)[C@H]2[C@H](CCN2C(=O)c2cccc(F)c2)[C@@H](CO)N3)c1` | -49.15 |
| `COc1ccccc1-c1ccc2c(c1)[C@@H]1[C@@H](CCN1C(=O)c1ccc3c(c1)OCO3)[C@H](CO)N2` | -46.83 |
| `O=C(C[C@H]1C[C@H]2c3cc(NS(=O)(=O)c4ccc(F)cc4)ccc3O[C@H]2[C@H](CO)O1)N1CCc2ccccc2C1` | -17.47 |
| `CO[C@H]1CN(C)C(=O)c2ccc(NC(=O)c3nc4ccccc4s3)cc2OC[C@@H](C)N(Cc2cccnc2)C[C@@H]1C` | -46.79 |
| `C[C@H](CO)N1C[C@H](C)[C@H](CN(C)C(=O)N[C@H](C)c2ccccc2)OCc2ccccc2-c2c(n(C)c3ccccc23)C1=O` | -71.04 |
| `N#Cc1cccc(-c2ccc3c(c2)[C@H]2[C@H](CCN2Cc2cncnc2)[C@H](CO)N3)c1` | -86.5 |
| `CN1CCN(C(=O)C[C@@H]2CC[C@@H]3[C@H](COC[C@@H](O)CN3Cc3cccc(-c4ccncc4)c3)O2)CC1` | -21.06 |
| `O=C(C[C@H]1CC[C@H]2[C@@H](COC[C@@H](O)CN2C(=O)Nc2ccc(Cl)c(Cl)c2)O1)NCc1ccc(Cl)c(Cl)c1` | -65.78 |
| `COc1ccccc1NC(=O)N(C)C[C@H]1OCc2ccccc2-c2c(n(C)c3ccccc23)C(=O)N([C@@H](C)CO)C[C@@H]1C` | -17.77 |
| `CCCC(=O)Nc1ccc2c(c1)C(=O)N(C)C[C@H](OC)[C@@H](C)CN(Cc1ccc(F)cc1)[C@@H](C)CO2` | -16.9 |
| `C[C@H](CO)N1C[C@H](C)[C@H](CN(C)Cc2ccc(C(F)(F)F)cc2)OCc2ccccc2-c2ccccc2C1=O` | -34.15 |
| `O=C(CC1CC1)N1CC(=O)N2[C@H](C1)[C@H](c1ccc(C#Cc3cccc(F)c3)cc1)[C@@H]2CO` | -16.19 |
| `C[C@@H]1CN([C@@H](C)CO)C(=O)CCCn2nncc2CO[C@H]1CN(C)Cc1ccc(-c2ccccc2)cc1` | -38.58 |
| `COc1ccccc1CN1[C@H](CO)[C@@H](c2ccccc2)C12CN(C(=O)c1ccccn1)C2` | -12.5 |
| `CCCC#Cc1ccc([C@H]2[C@H](CO)N3C(=O)CN(C(=O)Nc4cc(F)ccc4F)C[C@@H]23)cc1` | -68.43 |
| `COc1ccc2c3c(n(C)c2c1)[C@H](CO)N(Cc1ccc(F)cc1)CC31CN(CC2CCOCC2)C1` | -13.76 |
| `O=C1CN(S(=O)(=O)Cc2ccccc2)C[C@@H]2[C@H](c3ccc(C#Cc4ccccc4)cc3)[C@@H](CO)N12` | -15.43 |
| `COc1ccc(CN2CC3(CN(S(=O)(=O)c4ccc(C)cc4)C3)c3c([nH]c4cc(OC)ccc34)[C@H]2CO)cc1` | -96.85 |
| `C[C@H]1CN([C@@H](C)CO)C(=O)c2c(c3ccccc3n2C)-c2ccccc2CO[C@H]1CN(C)S(=O)(=O)c1ccccc1F` | -36.63 |
| `COc1ccccc1CN1C[C@@H]2N[C@H](C1)C2c1ccc(-c2ccc(C#N)cc2)cc1` (stereo partly shown) | -10.43 |
| `C[C@@H]1CN([C@H](C)CO)C(=O)c2c(c3ccccc3n2C)-c2ccccc2CO[C@H]1CN(C)C(=O)N[C@H](C)c1ccccc1` | -3.713 |
| `O=C(C[C@H]1CC[C@H]2[C@@H](COC[C@H](O)CN2Cc2ccc(Oc3ccccc3)cc2)O1)N1CCOCC1` | -8.945 |
| `C[C@H](CO)N1C[C@H](C)[C@@H](CN(C)C(=O)Nc2cccc(C(F)(F)F)c2)OCc2ccccc2-c2c(n(C)c3ccccc23)C1=O` | -54.57 |
| `CCCNC(=O)N1CC(=O)N2[C@H](CO)[C@@H](c3ccc(C#Cc4cccc(F)c4)cc3)[C@H]2C1` | -17.83 |
| `O=C(c1ccc2c(c1)OCO2)N1C[C@@H]2N[C@H](C1)C2c1ccc(-c2cccnc2)cc1` (stereo partly shown) | -19.57 |
| `COc1cccc(NC(=O)Nc2ccc3c(c2)C(=O)N(C)C[C@H](OC)[C@H](C)CN(CC2CC2)[C@@H](C)CO3)c1` | 2.47 |
| `O=C(C[C@@H]1C[C@H]2c3cc(NC(=O)C4CCOCC4)ccc3O[C@H]2[C@H](CO)O1)NCc1ccc(Oc2ccccc2)cc1` | -37.83 |
| `COCC(=O)N1CCCCN2[C@H](C1)[C@H](c1ccc(C#Cc3ccccc3)cc1)[C@@H]2CO` | -9.069 |

Once more, the final 7:

| structure | activity change (%) |
|---|---|
| `O=C(C[C@H]1CC[C@H]2[C@@H](COC[C@H](O)CN2Cc2ccc(Oc3ccccc3)cc2)O1)N1CCOCC1` | -8.945 |
| `C[C@H](CO)N1C[C@H](C)[C@@H](CN(C)C(=O)Nc2cccc(C(F)(F)F)c2)OCc2ccccc2-c2c(n(C)c3ccccc23)C1=O` | -54.57 |
| `CCCNC(=O)N1CC(=O)N2[C@H](CO)[C@@H](c3ccc(C#Cc4cccc(F)c4)cc3)[C@H]2C1` | -17.83 |
| `O=C(c1ccc2c(c1)OCO2)N1C[C@@H]2N[C@H](C1)C2c1ccc(-c2cccnc2)cc1` (stereo partly shown) | -19.57 |
| `COc1cccc(NC(=O)Nc2ccc3c(c2)C(=O)N(C)C[C@H](OC)[C@H](C)CN(CC2CC2)[C@@H](C)CO3)c1` | 2.47 |
| `O=C(C[C@@H]1C[C@H]2c3cc(NC(=O)C4CCOCC4)ccc3O[C@H]2[C@H](CO)O1)NCc1ccc(Oc2ccccc2)cc1` | -37.83 |
| `COCC(=O)N1CCCCN2[C@H](C1)[C@H](c1ccc(C#Cc3ccccc3)cc1)[C@@H]2CO` | -9.069 |

Source: PubChem BioAssay AID1224904 (Broad Institute, 2016).